Results: article PMC10525324
These are yes or no findings as the source states them, for the method shown. In cells and extracts the contact can be indirect. Some binding calls cover weakened binding; strength is not graded here. Where a sequence is shown, tags or fusion partners need not be part of it.

By UniProt entry, the sequences of proteins in these tests, tags left out.
UniProt Q04207: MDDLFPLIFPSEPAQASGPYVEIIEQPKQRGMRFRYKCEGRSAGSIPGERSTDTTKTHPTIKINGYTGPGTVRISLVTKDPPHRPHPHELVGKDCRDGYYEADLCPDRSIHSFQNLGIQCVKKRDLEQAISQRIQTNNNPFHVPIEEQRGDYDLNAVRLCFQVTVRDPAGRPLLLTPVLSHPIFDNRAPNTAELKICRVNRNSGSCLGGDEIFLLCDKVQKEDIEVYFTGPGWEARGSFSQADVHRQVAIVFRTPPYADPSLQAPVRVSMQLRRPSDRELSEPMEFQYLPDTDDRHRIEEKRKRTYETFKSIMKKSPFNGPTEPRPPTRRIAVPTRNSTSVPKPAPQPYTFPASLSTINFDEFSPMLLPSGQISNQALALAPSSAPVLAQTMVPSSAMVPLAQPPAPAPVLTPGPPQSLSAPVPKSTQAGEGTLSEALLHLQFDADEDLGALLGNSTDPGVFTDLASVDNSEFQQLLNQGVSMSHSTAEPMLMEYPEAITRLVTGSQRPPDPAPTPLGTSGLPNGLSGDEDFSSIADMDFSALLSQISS

Target: T1, FLAG-SHP fusion protein (small heterodimer partner, Nr0b2) (UniProt Q15466)
T1 sequence: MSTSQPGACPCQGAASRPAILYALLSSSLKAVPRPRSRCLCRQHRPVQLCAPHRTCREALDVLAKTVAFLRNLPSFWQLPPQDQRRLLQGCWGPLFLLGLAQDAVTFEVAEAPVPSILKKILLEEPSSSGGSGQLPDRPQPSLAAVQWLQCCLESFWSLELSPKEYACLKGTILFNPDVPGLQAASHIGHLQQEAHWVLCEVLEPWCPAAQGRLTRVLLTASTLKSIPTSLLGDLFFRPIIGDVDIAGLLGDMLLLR
Test: co-IP; 1000 μg whole protein lysate of PMSCV-SHP (FLAG-SHP) or control PMSCV RAW 264.7 cells incubated with anti-FLAG M2 magnetic beads; eluted in 2× SDS loading buffer; Western blot

binding: binds
Substance: NF-κB p65 (from UniProt Q04207 1-549)
